## Assay results

Data taken from PubChem BioAssay AID1159506, deposited by NCATS (2015).

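Luminescence from an EWS-FLI1 target-promoter (NR0B1) reporter, set against a CMV-promoter reporter, two days after silencing single genes in TC32 Ewing sarcoma cells. Each siRNA was applied at 20 nM. A z-score of the log NR0B1-over-CMV signal, less the median of siRNAs with the same seed; more negative means a stronger specific loss of the NR0B1 reporter.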

The strongest results of the screen are mostly left out here. Sequences are the guide (antisense) strand, without overhang.

| # | strand | target gene | seed-corrected z-score |
|---|---|---|---|
| 1 | `UUCUUUCUCAAUAGUGUCU` | FAM127C | 0.2251 |
| 2 | `UACGUAAAGAACACGGUCC` | NDUFAB1 | -0.06517 |
| 3 | `AAAGGCCUCACAAAUUUCC` | DUS2 | 1.132 |
| 4 | `UAUAAGGUUAGCAAGGUUG` | SPAST | 0.03974 |
| 5 | `UCUUUUUCAACUCUCUUCC` | FUNDC1 | -1.737 |
| 6 | `UAGGUCAAUAGUGGAAAGC` | OR51D1 | 0.3616 |
| 7 | `UUGGGUCUCGGAGAGUUUG` | ZSCAN5B | -0.6532 |
| 8 | `UUUCCUUAUCGAGUUCAUC` | C8orf34 | 0.3587 |
| 9 | `AACAAUUCAAGAGGAAGUC` | OR56A3 | 0.5947 |
| 10 | `UAUUUCCACACUCCGUUUG` | TMEM214 | -0.1611 |
| 11 | `UGUUGCAAUAAUAAUCUGU` | ZCCHC10 | -1.025 |
| 12 | `UUUUGUCCAGUUUUUCUCU` | TFAP2A | -0.368 |
| 13 | `UGCUUUAUUAUCAAUGGAU` | PABPC1 | -1.262 |
| 14 | `UCUUCGACAAUCUUGAGUG` | MFAP1 | -0.5558 |
| 15 | `UGUUCGGCAAGAAAACACG` | RAF1 | -0.4592 |
| 16 | `UCAUCUACGUCUCCUCUCC` | FAM118B | -0.003073 |
| 17 | `UCUAAUUGCAUGUUCAUCA` | DEFB131 | -0.2193 |
| 18 | `UUUUGCCUGAGAGUGAACC` | NBPF6 | -0.1476 |
| 19 | `AUACUGAUGGUUUUAUUGG` | OR52E4 | 0.5403 |
| 20 | `UUGGUAUUCAGCUGAAGCC` | MYLIP | 0.06632 |
| 21 | `AGAUGAUUAAGGGAUAGGC` | SSFA2 | 1.133 |
| 22 | `UCCAAGUUGAACCAGAUCC` | FUT3 | 1.178 |
| 23 | `UGGUCAAUCAGAUGAACCC` | SLC6A14 | 0.1947 |
| 24 | `AAACGCUGACUUAUUCUUC` | HS6ST1P1 | 0.1681 |
| 25 | `UGCGCUUUAAAGCAGACUC` | ZBTB49 | -1.076 |
| 26 | `UGUAUCUGCACGUCGGUCC` | MYPOP | -0.2067 |
| 27 | `UAUCUAAUAUAGUAAGAGG` | FEM1C | 0.15 |
| 28 | `ACGGUUUUCACCAAAGGCC` | CLDN11 | 0.7186 |
| 29 | `UUCUUGUACAUUAUUCUGU` | POLR2K | 0.1799 |
| 30 | `UGUUCACUCAUGCAAUCCU` | COA4 | -0.8507 |
| 31 | `UUAUGUAGUUCAGGCAUGC` | RASSF1 | -1.138 |
| 32 | `UUGUUGAUCACAUAGGUUC` | FXN | 1.471 |
| 33 | `UCAGCACCAAGUCGAUCUC` | CHRNB2 | 0.4018 |
| 34 | `UCCAUGAUCUCAGACAUGG` | CNNM2 | -0.3045 |
| 35 | `AGGGCUACUAGGAACAUGC` | PLEKHM2 | 0.07181 |
| 36 | `UCACCUGCAGAUAAGAACG` | DCAF8 | -0.1735 |
| 37 | `UCUACUUCUAGAAAGGUUG` | SNTG1 | 0.2007 |
| 38 | `UAGUUUCCAGGUAACAUAC` | LDHB | -0.2305 |
| 39 | `AGUGCUUCCAGAAUGUACC` | TRPT1 | 0.757 |
| 40 | `UUCCUAGUUGGUCUGCUCC` | UBXN8 | 0.2573 |
| 41 | `UGACUUAUCCACCUCGGCC` | C16orf86 | 0.1976 |
| 42 | `UUUGAUAAUACCUCGUAUG` | DNAJB7 | 1.267 |

Once more, the final 3:

{"strand": "UUCCUAGUUGGUCUGCUCC", "target gene": "UBXN8", "seed-corrected z-score": "0.2573"}
{"strand": "UGACUUAUCCACCUCGGCC", "target gene": "C16orf86", "seed-corrected z-score": "0.1976"}
{"strand": "UUUGAUAAUACCUCGUAUG", "target gene": "DNAJB7", "seed-corrected z-score": "1.267"}